This note sets out measurements from PMC10268282, “Activator-induced conformational changes regulate division-associated peptidoglycan amidases” (Proceedings of the National Academy of Sciences of the …, 2023).

Protein sequences, listed by entry. Tags and fused reporters are not part of them. Lines headed by an entry give the natural chain unless they say otherwise; changes in a name come on top.
UniProt P37690: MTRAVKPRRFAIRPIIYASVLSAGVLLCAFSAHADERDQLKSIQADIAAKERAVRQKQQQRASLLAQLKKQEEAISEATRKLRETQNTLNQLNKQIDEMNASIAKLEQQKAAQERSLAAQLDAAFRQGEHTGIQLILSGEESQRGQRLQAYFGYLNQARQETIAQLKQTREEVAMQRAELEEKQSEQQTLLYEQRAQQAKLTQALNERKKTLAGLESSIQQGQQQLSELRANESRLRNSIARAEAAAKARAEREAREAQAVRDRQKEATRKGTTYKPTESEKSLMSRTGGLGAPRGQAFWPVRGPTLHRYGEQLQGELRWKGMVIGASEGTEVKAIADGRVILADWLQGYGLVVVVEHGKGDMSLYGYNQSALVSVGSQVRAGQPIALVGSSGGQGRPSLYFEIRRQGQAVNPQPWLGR

Positions count from the first letter of the chain named. In names and notes the source's numbering stands. No constants are given. Whether binding was seen depends on the method and setting. Binding calls can cover weak binding; strength is not graded here. Tags and fused reporters may be left off the sequences shown.

In assay [1] the target is EnvC LytM domain, bacterial 2-hybrid fusion (E. coli) (UniProt P37690). The experiment in a line: two-hybrid; bacterial 2-hybrid (BACTH system), same agar plate photographed after 6 d at 20 °C.
Assay [2] shares this target. The experiment in a line: two-hybrid; bacterial 2-hybrid (BACTH system), agar plate photographed after 4 d at 20 °C.

B1: AmiA (wild type), bacterial 2-hybrid fusion (enzyme, UniProt P36548 35-289)
chain: KDELLKTSNGHSKPKAKKSGGKRVVVLDPGHGGIDTGAIGRNGSKEKHVVLAIAKNVRSILRNHGIDARLTRSGDTFIPLYDRVEIAHKHGADLFMSIHADGFTNPKAAGASVFALSNRGASSAMAKYLSERENRADEVAGKKATDKDHLLQQVLFDLVQTDTIKNSLTLGSHILKKIKPVHKLHSRNTEQAAFVVLKSPSVPSVLVETSFITNPEEERLLGTAAFRQKIATAIAEGVISYFHWFDNQKAHSKKR
Take B1: the binding entry in assay [1] and in assay [2] was “binds” throughout.

B2: AmiA V188K, bacterial 2-hybrid fusion (enzyme, UniProt P36548 35-289)
chain: B1 chain with V154K
With B2, the binding result in assay [2] is “no binding”.

B3: AmiA L185K, bacterial 2-hybrid fusion (enzyme, UniProt P36548 35-289)
chain: B1 chain with L151K
As for B3, in assay [2], the binding entry is reported as “no binding”.

B4: AmiA L192K, bacterial 2-hybrid fusion (enzyme, UniProt P36548 35-289)
chain: B1 chain with L158K
As to B4, the binding result in assay [2] is recorded as “no binding”.

B5: AmiA L184K, bacterial 2-hybrid fusion (enzyme, UniProt P36548 35-289)
chain: B1 chain with L150K
On to B5, for which the binding result in assay [2] is listed as “no binding”.

B6: AmiA L189K, bacterial 2-hybrid fusion (enzyme, UniProt P36548 35-289)
chain: B1 chain with L155K
As to B6, the binding result in assay [2] is on record as “no binding”.
